Measurements from PMC5813005.

Protein sequences, listed by entry. Tags and fused reporters are not part of them. Lines headed by an entry give the natural chain unless they say otherwise; changes in a name come on top.
UniProt P00860: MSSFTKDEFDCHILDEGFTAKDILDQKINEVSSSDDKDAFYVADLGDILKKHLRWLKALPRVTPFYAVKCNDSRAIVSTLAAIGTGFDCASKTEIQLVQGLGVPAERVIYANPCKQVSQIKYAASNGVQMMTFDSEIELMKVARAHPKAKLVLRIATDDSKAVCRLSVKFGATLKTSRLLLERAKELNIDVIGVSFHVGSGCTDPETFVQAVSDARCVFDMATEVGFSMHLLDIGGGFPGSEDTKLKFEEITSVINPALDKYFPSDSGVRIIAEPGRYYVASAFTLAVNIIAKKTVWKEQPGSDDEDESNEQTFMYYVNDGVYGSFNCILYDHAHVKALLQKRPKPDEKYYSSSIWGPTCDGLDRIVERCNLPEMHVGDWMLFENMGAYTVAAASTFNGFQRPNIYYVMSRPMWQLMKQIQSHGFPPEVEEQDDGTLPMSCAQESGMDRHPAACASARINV
UniProt P54369: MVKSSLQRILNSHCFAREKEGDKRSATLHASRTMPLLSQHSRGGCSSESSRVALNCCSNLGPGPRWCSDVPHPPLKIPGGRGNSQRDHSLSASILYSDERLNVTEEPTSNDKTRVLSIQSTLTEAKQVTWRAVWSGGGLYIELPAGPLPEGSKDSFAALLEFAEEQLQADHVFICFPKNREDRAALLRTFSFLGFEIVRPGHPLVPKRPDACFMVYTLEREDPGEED
UniProt P01108: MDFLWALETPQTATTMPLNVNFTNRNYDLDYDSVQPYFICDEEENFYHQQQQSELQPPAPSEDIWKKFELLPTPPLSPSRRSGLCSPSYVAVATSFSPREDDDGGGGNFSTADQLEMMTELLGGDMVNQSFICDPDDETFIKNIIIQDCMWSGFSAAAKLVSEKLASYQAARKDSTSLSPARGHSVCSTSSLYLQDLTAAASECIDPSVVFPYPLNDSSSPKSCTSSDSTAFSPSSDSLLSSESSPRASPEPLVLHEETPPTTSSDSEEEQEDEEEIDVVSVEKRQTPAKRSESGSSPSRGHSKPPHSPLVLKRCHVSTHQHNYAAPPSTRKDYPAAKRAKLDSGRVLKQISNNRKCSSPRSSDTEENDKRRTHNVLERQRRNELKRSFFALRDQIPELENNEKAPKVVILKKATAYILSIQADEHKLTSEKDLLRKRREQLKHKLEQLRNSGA

Legend:
Experiment in all cases: co-IP; 293-F cells co-expressing HA-tagged and FLAG-tagged proteins, lysed in M-PER; anti-FLAG (M2)-agarose, 4 °C overnight; bound proteins detected by anti-HA immunoblot
[1] = biological target: FLAG-ODC (FLAG-tagged ornithine decarboxylase) (mouse) (UniProt P00860)
[2] = biological target: T1, FLAG-AZ2 (FLAG-tagged antizyme 2) (mouse) (UniProt O08608)
T1 sequence: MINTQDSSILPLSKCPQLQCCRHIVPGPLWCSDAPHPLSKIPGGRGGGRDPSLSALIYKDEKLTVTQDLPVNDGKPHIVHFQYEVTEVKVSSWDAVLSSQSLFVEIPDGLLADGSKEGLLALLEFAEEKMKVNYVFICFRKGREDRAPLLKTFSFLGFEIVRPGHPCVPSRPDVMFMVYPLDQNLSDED

[3] = biological target: FLAG-AZ1 (FLAG-tagged antizyme 1) (mouse) (UniProt P54369)

HA-c-Myc (hemagglutinin epitope-tagged c-Myc) (from UniProt P01108)
binding [1]: no binding
binding [2]: binds
binding [3]: binds

Results are given in words; binding and its absence hold for the method and conditions named. Binding seen in cells or lysates may run through a third protein. For part of these data: Binding calls can cover weak binding; strength is not graded here. For part of these data: Sequences can lack the tags named with a protein.
